From paper PMC11426250
No constants are given. Whether binding was seen depends on the method and setting. In cells and extracts the contact can be indirect. Some binding calls cover weakened binding; strength is not graded here.

Amino acid sequences for entries named in this document (tags omitted).
UniProt Q9UH17: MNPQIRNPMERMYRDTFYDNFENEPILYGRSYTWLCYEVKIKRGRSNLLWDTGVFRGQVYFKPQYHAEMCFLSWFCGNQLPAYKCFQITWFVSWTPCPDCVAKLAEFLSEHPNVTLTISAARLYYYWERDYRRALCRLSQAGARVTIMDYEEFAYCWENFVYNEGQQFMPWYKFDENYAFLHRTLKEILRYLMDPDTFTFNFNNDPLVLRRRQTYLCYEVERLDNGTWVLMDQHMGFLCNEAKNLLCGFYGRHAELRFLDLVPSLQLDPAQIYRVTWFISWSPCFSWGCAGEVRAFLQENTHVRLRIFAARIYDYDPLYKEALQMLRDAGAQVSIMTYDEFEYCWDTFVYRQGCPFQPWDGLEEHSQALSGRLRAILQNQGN

B1: DTX4 (exogenous, transfected) (enzyme, UniProt Q9Y2E6 1-619)
chain: MLLASAVVVWEWLNEHGRWRPYSPAVSHHIEAVVRAGPRAGGSVVLGQVDSRLAPYIIDLQSMNQFRQDTGTLRPVRRNYYDPSSAPGKGVVWEWENDNGSWTPYDMEVGITIQHAYEKQHPWIDLTSIGFSYVIDFNTMGQINRQTQRQRRVRRRLDLIYPMVTGTLPKAQSWPVSPGPATSPPMSPCSCPQCVLVMSVKAAVVNGSTGPLQLPVTRKNMPPPGVVKLPPLPGSGAKPLDSTGTIRGPLKTAPSQVIRRQASSMPTGTTMGSPASPPGPNSKTGRVALATLNRTNLQRLAIAQSRVLIASGVPTVPVKNLNGSSPVNPALAGITGILMSAAGLPVCLTRPPKLVLHPPPVSKSEIKSIPGVSNTSRKTTKKQAKKGKTPEEVLKKYLQKVRHPPDEDCTICMERLTAPSGYKGPQPTVKPDLVGKLSRCGHVYHIYCLVAMYNNGNKDGSLQCPTCKTIYGVKTGTQPPGKMEYHLIPHSLPGHPDCKTIRIIYSIPPGIQGPEHPNPGKSFSARGFPRHCYLPDSEKGRKVLKLLLVAWDRRLIFAIGTSSTTGESDTVIWNEVHHKTEFGSNLTGHGYPDANYLDNVLAELAAQGISEDSTAQEKD
B2: DTX4 (endogenous) (enzyme, UniProt Q9Y2E6 1-619)
chain: B1 chain

Assays:
[1] = target: APOBEC3B (exogenous, transfected) (UniProt Q9UH17); experiment: co-IP; HEK293T cells transfected with DTX4 and APOBEC3B; which protein was precipitated is not told
[2] = target: APOBEC3B (endogenous) (human (endogenous in HepG2 and HepG2.2.15)) (UniProt Q9UH17); experiment: co-IP; endogenous proteins in HepG2 and HepG2.2.15 cells; which protein was precipitated is not told

Binder | binding [1] | binding [2]
B1 | binds | 
B2 |  | binds
